Measured values published in patent US20200061150A1, “METHOD OF INDUCING SELECTIVE PROSTATE GLANDULAR PHARMACO-ABLATION WITH SPARING OF NERVES AND PRESERVATION OF SEXUAL FUNCTION” (Nymox Corporation, priority 2018, published 2020).
Part of at least one peptide drawing is inferred or uncertain, most often the ends. No end group written: not given here.

Assays:
rat prostate = assay: Prostate volume in rats after intraprostatic (whole gland) injection; type: in vivo, Sprague-Dawley rats
Protocol: (§1) Two month old Sprague-Dawley rats (n=268) weighing 200 to 300 g, housed in groups of 2-5 per cage at room temperature (24-26° C.), with standard unrestricted diet and water, were anesthetized with ether and underwent open laparoscopic injections, using sterile precautions and sterile techniques, without antibiotics, of 0.3 mL of FT 0.1-2.0 mg/mL in phosphate buffered saline (PBS) pH 7.4, administered by #26 gauge sterile needles attached to sterile syringes. The animals received a “whole gland” injection in an amount roughly 20 times the amount previously administered to humans. […] The rats were daily observed and painlessly sacrificed after post-treatment intervals of 24 hours to 12 months under either anesthesia.
Sub-groups of rats received repeated injections (2×-8×, on a once weekly basis) (Table 1).
(§2) Apoptosis was evaluated microscopically in H&E stained sections, including rats sacrificed after 24, 48, and 72 hours, 4-8 days, and 1, 3, 6, and 12 months. All sections from FT treated rats were examined by two separate observers who tabulated extent of atrophy and apoptosis, nerve presence or absence, and nerve histological normality or abnormality, in each section. TUNEL staining was assessed in 21 animals (72 hours; 7 days, post-treatment). Prostate volume (calculated by approximation to a sphere using the mean of 8 perpendicular diameters (2 per section at 90 degrees; on four sections) and calculations of 4/3 π(D/2)^3) were assessed in all animals and all controls. Tangentially cut blocks and sections were excluded from measurements.
A summary of animal groups according to treatment (concentration of treatment compound, frequency of treatment, interval post-treatment to sacrifice), and microscopically derived volume measurements, is shown in Table 1.

[1] = tested on: Prostate cell lines (PC3 and LNCAP); assay: Treated prostate cell lines: electron microscopy, Annexin V immunofluorescence, RNA, quantitative cell loss (Multitox-Fluor); type: cell-based
[2] = tested on: prostate glandular epithelial cells; assay: Tissue culture genetic array; type: cell-based; conditions: in vitro
[3] = tested on: rat prostate glandular epithelium, nerves, stroma, vessels; assay: Prostate histology (H&E, Bielschowsky silver, TUNEL) in treated rats; type: in vivo, Sprague-Dawley rats
Protocol: as §1
Prostate glands were removed, bisected, and immersed in 10% formalin solution, and subsequently embedded in paraffin, sectioned, and stained with (1) hematoxylin-eosin (H&E); (2) Bielschowsky silver method for nerve fibers; and (3) immunohistochemical TUNEL staining. TUNEL (Terminal deoxynucleotidyl transferase (dUTP) nick end labeling) detects DNA fragmentation by labeling the 3′-hydroxyl termini in the double-stand DNA breaks generated during apoptosis. Prostate cell lines (PC3 and LNCAP) were treated with FT 0.001 or 0.25 mg/mL in 6, 24, and 48 well plates and harvested and pelleted at 0, 12, 24, and 48 hours. Electron microscopy was performed on the sectioned pellets (Analytical Biological Services, Wilmington, Del.; and Paragon BioServices, Baltimore, Md.). The same treated cell lines under the same conditions were also stained in vitro after treatment using Annexin V immunofluorescence methods and viewed under ultraviolet light, and cell loss in vitro was assessed quantitatively (Multitox-Fluor, Promega). Annexin V binds to phosphatidylserine which is a marker for apoptosis when externalized on the outer leaflet of the plasma membrane.
as §2

prostate = assay: Prostate weight in beagle dogs after single intraprostatic injection; type: in vivo; conditions: FT 0.28-1.6 mg/kg body weight

## IDQQVLSRIKLEIKRCL [FT, Ile-Asp-Gln-Gln-Val-Leu-Ser-Arg-Ile-Lys-Leu-Glu-Ile-Lys-Arg-Cys-Leu]
Rat prostate; All repeat FT 12 mos
  Prostate Volume mm^3-Mean (SD): 658.1 (317.1)^15 mm^3
Rat prostate; FT 1 mg/mL daily X3 days, 3 days
  Prostate Volume mm^3-Mean (SD): 240.0 (51.0) mm^3
Rat prostate; FT 1 mg/mL weekly X2 wk, 3 mos
  Prostate Volume mm^3-Mean (SD): 509.2 (200.3) mm^3
Rat prostate; FT 1 mg/mL weekly X2 wk, 12 mos
  Prostate Volume mm^3-Mean (SD): 497.3 (150.3) mm^3
Rat prostate; FT 1 mg/mL weekly X4 wk, 3 mos
  Prostate Volume mm^3-Mean (SD): 536.9 (87.7) mm^3
Rat prostate; FT 1 mg/mL weekly X4 wk, 6 mos
  Prostate Volume mm^3-Mean (SD): 705.4 (246.2) mm^3
Rat prostate; FT 1 mg/mL weekly X4 wk, 12 mos
  Prostate Volume mm^3-Mean (SD): 745.9 (316.9) mm^3
Rat prostate; FT 1 mg/mL weekly X8 wk, 3 mos
  Prostate Volume mm^3-Mean (SD): 663.5 (70.9) mm^3
Rat prostate; FT 1 mg/mL weekly X8 wk, 6 mos
  Prostate Volume mm^3-Mean (SD): 734.5 (203.3) mm^3
Rat prostate; FT 1 mg/mL weekly X8 wk, 12 mos
  Prostate Volume mm^3-Mean (SD): 738.0 (153.5) mm^3
Rat prostate; FT 1 mg/mL, single administration, 3 mos
  Prostate Volume mm^3-Mean (SD): 674.2 (195.0)^6 mm^3
Rat prostate; FT 1 mg/mL, single administration, 6 mos
  Prostate Volume mm^3-Mean (SD): 986.2 (560.9)^7 mm^3
Rat prostate; FT 1 mg/mL, single administration, 12 mos
  Prostate Volume mm^3-Mean (SD): 450.3 (129.0)^8 mm^3
Rat prostate; FT 1 mg/mL, single administration, 24 hr
  Prostate Volume mm^3-Mean (SD): 387.0 (117.5)^2 mm^3
Rat prostate; FT 1 mg/mL, single administration, 48 hr
  Prostate Volume mm^3-Mean (SD): 226.4 (66.9)^3 mm^3
Rat prostate; FT 1 mg/mL, single administration, 72 hr
  Prostate Volume mm^3-Mean (SD): 287.9 (104.7)^4 mm^3
Rat prostate; FT 1 mg/mL, single administration, 7 days
  Prostate Volume mm^3-Mean (SD): 303.0 (102.7)^5 mm^3
Rat prostate; FT 1 mg/ml, all adequately powered individual time points
  mean prostate volume vs vehicle alone (PBS), time point matched: statistically significantly reduced
Rat prostate; FT 2 mg/mL weekly X2 wk, 3 mos
  Prostate Volume mm^3-Mean (SD): 651.9 (183.9) mm^3
Rat prostate; FT 2 mg/mL weekly X2 wk, 6 mos
  Prostate Volume mm^3-Mean (SD): 1401.1 (439.9) mm^3
Rat prostate; FT 2 mg/mL weekly X2 wk, 12 mos
  Prostate Volume mm^3-Mean (SD): 574.9 (264.1) mm^3
Rat prostate; FT 2 mg/mL weekly X4wk, 3 mos
  Prostate Volume mm^3-Mean (SD): 643.7 (270.3) mm^3
Rat prostate; FT 2 mg/mL weekly X4 wk, 6 mos
  Prostate Volume mm^3-Mean (SD): 551.6 (246.8) mm^3
Rat prostate; FT 2 mg/mL weekly X4 wk, 12 mos
  Prostate Volume mm^3-Mean (SD): 770.5 (222.4) mm^3
Rat prostate; FT 2 mg/mL weekly X8 wk, 3 mos
  Prostate Volume mm^3-Mean (SD): 728.4 (116.2) mm^3
Rat prostate; FT 2 mg/mL weekly X8 wk, 6 mos
  Prostate Volume mm^3-Mean (SD): 897.6 (353.6) mm^3
Rat prostate; FT 2 mg/mL weekly X8 wk, 12 mos
  Prostate Volume mm^3-Mean (SD): 805.7 (223.7) mm^3
Rat prostate; FT 2 mg/mL, single administration, 3 mos
  Prostate Volume mm^3-Mean (SD): 616.8 (148.7)^10 mm^3
Rat prostate; FT 2 mg/mL, single administration, 6 mos
  Prostate Volume mm^3-Mean (SD): 776.3 (453.7)^11 mm^3
Rat prostate; FT 2 mg/mL, single administration, 12 mos
  Prostate Volume mm^3-Mean (SD): 754.9 (483.3)^12 mm^3
Rat prostate; FT 2 mg/mL, single administration, 7 days
  Prostate Volume mm^3-Mean (SD): 251.7 (24.3)^9 mm^3
Rat prostate; FT 5 mg/mL, single administration, 7 days
  Prostate Volume mm^3-Mean (SD): 422.9 (33.2) mm^3
Rat prostate; injections in the range of 0.5-5.0 mg/mL
  differences in rat prostate volumes between dosages: no statistical differences
[1]; 0.25 mg/mL FT dose compared to 0.001 mg/mL FT
  in vitro quantitative measures of cell death and loss: significant cell depletion
[1]; FT 0.001 or 0.25 mg/mL, controls negative
  Annexin V immunofluorescence in vitro: positivity
[1]; after 24 hours
  quantitative measures of RNA: depletion
[1]; in vitro after 24-48 hours
  ultrastructural changes (electron microscopy): progressive cell disruption, fragmentation, and disappearance into debris
[2]
  BCL pathways (activation of BIK, HRK, BCL2L10 and BCL3): stimulates
  caspase pathways (activation of caspases 7, 8, and 10, caspase recruitment domains 6, 11, and 14, and DIABLO): stimulates
  tumor necrosis factor pathways (activation of TNF1, TNFSF6, TNFSF8, TNFSF9, CD70 ligands, and TNFRSF19L, TNFRSF25, TRAF2, TRAF3, TRAF4, TRAF6 receptors): stimulates
[3]; 24, 48, 72 hours, 1 week, lesser extent in ensuing weeks, not found in controls
  apoptotic changes in H&E sections: large areas with very prominent cellular changes
[3]; after 6 months-1 year
  loss of glandular epithelium throughout the prostate: near-complete to complete loss
[3]; at 6 months and one year
  apoptotic changes in H&E sections: infrequent or no longer seen
[3]; in the areas of apoptotic changes, 72 hours, 7 days post-treatment
  immunoperoxidase TUNEL staining: TUNEL positivity
prostate; n=8 (controls 6.4%)
  mean prostate weight as % of body weight: 3.4 % of body weight
prostate; n=8 (controls 8.96 g)
  mean prostate weight: 4.36 g
